Laboratory results published in the supplement of paper PMC3656093.
± gives the standard deviation of the averaged measurements. Shown are results outside the selection of lowest values, which stands elsewhere.

System: BL2-NFkB-Luc
Experiment: CD40L-induced NF-kB luciferase activity, plate-corrected, relative to DMSO (0) and IKK inhibitor VII (-100) controls (% normalized activity); higher = more NF-kB reporter activity (less inhibition)
Conditions: 9.4 µM; stimulus: tCD40L 64 ng/ml; 4.5 h
Protocol: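 BL2 B cells with a stable NF-kB response-element luciferase reporter (BL2-NFkB-Luc), 384-well. Cells were pre-incubated with compound at 9.4 uM for 1 h at 37 C, then stimulated with 64 ng/ml trimerized CD40L for 4.5 h; luciferase was read with Steady-Glo. Signal was normalised per plate in Genedata (median DMSO neutral control = 0, median IKK inhibitor VII at 50 uM = -100) with Assay Median plate-pattern correction; duplicate plates.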

| SMILES | CD40L-induced NF-kB luciferase activity |
| --- | --- |
| CN(C)CCOC(c1ccccc1)c1ccccc1.Cn1c(=O)c2[nH]c(Cl)nc2n(C(=O)O)c1=O | -0.699 ± 2.5 |
